Data as given in PubChem BioAssay AID1347076 (National Center for Advancing Translational Sciences (NCATS), 2019).
Hit rate of the full screen: of about 400,000 compounds, about 13,000 (3.2%) were called active. Inconclusive means that the source gave no clear call. Such entries were picked first, then a sample of the others. The call rests on the fitted dose curve; in most records, active means well fitted cell-killing curve with a large enough effect; inconclusive means small, poorly fitted or top-dose-only effect, or effect the other way; inactive means flat fitted curve, though single readings scatter. A potency beside an inconclusive call is a rough fit, not a confirmed value.

Assay: qHTS assay for MDR1-selective chemotherapeutics: Primary screen using the drug-selected MDR subline cells KB-V1; further: nearly all actives have a fitted effect of over 60% in size
Conditions: KB-V1 MDR cells viability, CellTiter-Glo, 72 h; activity change, negative = cytotoxicity: at 46.1 µM (top of the series)
Summary of the method: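 Cytotoxicity toward P-gp-expressing KB-V1 cells was determined as loss of CellTiter-Glo luminescence after 72 h at 37 degrees C. Compounds were tested in quantitative HTS format across a concentration range, with curves fitted to normalized data.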
On the % scale 0 is the no-effect control and ±100 the full control effect; potency means the concentration at half of the fitted maximal effect.

Row | Compound | activity change, negative = cytotoxicity | Potency
1 | CC(C)C[C@H]1CNC(=S)N1C[C@H]1CCCN1C[C@H](Cc1ccccc1)N1C[C@H](CC(C)C)N(CCc2ccccc2)C1=S | inactive: -5% | 
2 | CCc1ccc(-c2nc(CSCC(=O)N3CCN(c4ccccn4)CC3)c(C)o2)cc1 |  | active: 18.4 µM
3 | CCN(C=NC1=NN(c2cccc(C(F)(F)F)c2)CC1)CC |  | inconclusive: 20.6 µM [cytotoxic, single point]
4 | COc1ccccc1N1CCN(C(=O)C2CCN(S(=O)(=O)c3ccccc3)CC2)CC1 | inactive: 1.32% | 
5 | Cc1ccc(S(=O)(=O)N(C)CCCC(=O)Nc2cccc3ccccc23)cc1 |  | active: 11.6 µM
6 | OC[C@@H]1CN(Cc2cccs2)C[C@H](n2cnc3c(NCc4ccncc4)ncnc32)O1 | inactive: 5.2% | 
7 | Cn1c(Cn2nnc3ccccc32)nnc1SCC(=O)N1c2ccccc2CCc2ccccc21 |  | inconclusive: 16.4 µM [cytotoxic, single point]
8 | Cc1ccc(S(=O)(=O)c2cc3c(=O)n4ccccc4nc3n(C)c2=N)cc1 |  | active: 6.51 µM
9 | Cc1ccc(N2C(=O)C3N=NN(CC(=O)N4N=C(c5cccc6ccccc56)CC4c4ccccc4)C3C2=O)cc1 (centres undefined) |  | inconclusive: 29.1 µM [cytotoxic, single point]
10 | Cc1cc(C)c(-c2csc(NC(=O)/C=C/c3cccs3)n2)c(C)c1 |  | active: 5.17 µM
11 | O=C(Nc1ccc(NC(=O)c2ccc3c(c2)OCCO3)cc1)c1ccccc1 |  | inconclusive: 9.2 µM [cytotoxic, partial curve]
12 | Cc1ccc(NC(=O)c2ccco2)c(NC(=O)COc2ccccc2)c1 | inactive: -6.61% | 
13 | O=C(CSc1cccc[n+]1[O-])CSc1cccc[n+]1[O-] |  | inconclusive: 8.2 µM [rising, partial curve, poor fit]
14 | Cc1cccc(Cn2ncc(Cl)c(Cl)c2=O)c1 |  | active: 20.6 µM
15 | O=C(c1ccco1)N1CCN(/C(=N/S(=O)(=O)c2cccs2)c2ccccc2Cl)CC1 | inactive: 2.89% | 
16 | COc1ccc(N2CCN(C(=O)C3CCN(S(=O)(=O)c4cnc[nH]4)CC3)CC2)cc1 |  | inconclusive: 29.1 µM [rising, single point]
17 | CSCCC(c1nnnn1C1CCCCC1)N1CCN(C/C=C/c2ccccc2)CC1 (centres undefined) |  | inconclusive: 18.4 µM [cytotoxic, single point]
18 | Cc1ccc2[nH]c3c(c2c1)CCCC3=O |  | active: 1.84 µM
19 | O=C(NC1CCCC1)C(C1CC1)n1c(-c2ccccn2)nc2ccccc21 (centres undefined) | inactive: -25.5% | 
20 | O=C1CN(S(=O)(=O)c2cccc(C(=O)O)c2)c2ccccc2N1 | inactive: 0% | 
21 | N#CC(c1ccccc1)N(CCCCl)C(=O)c1ccc(Br)cc1 (centres undefined) |  | inconclusive: 29.1 µM [cytotoxic, single point]
22 | COc1ccc(-c2noc(CSc3nc4ccccc4c(=O)n3-c3ccccc3)n2)cc1 |  | inconclusive: 8.2 µM [cytotoxic, partial curve]

Sorted by formula weight (smallest number first): part of the list above.
Row | Compound | activity change, negative = cytotoxicity | Potency
18 | Cc1ccc2[nH]c3c(c2c1)CCCC3=O |  | active: 1.84 µM
12 | Cc1ccc(NC(=O)c2ccco2)c(NC(=O)COc2ccccc2)c1 | inactive: -6.61% | 
19 | O=C(NC1CCCC1)C(C1CC1)n1c(-c2ccccn2)nc2ccccc21 (centres undefined) | inactive: -25.5% | 
11 | O=C(Nc1ccc(NC(=O)c2ccc3c(c2)OCCO3)cc1)c1ccccc1 |  | inconclusive: 9.2 µM [cytotoxic, partial curve]
8 | Cc1ccc(S(=O)(=O)c2cc3c(=O)n4ccccc4nc3n(C)c2=N)cc1 |  | active: 6.51 µM
5 | Cc1ccc(S(=O)(=O)N(C)CCCC(=O)Nc2cccc3ccccc23)cc1 |  | active: 11.6 µM
2 | CCc1ccc(-c2nc(CSCC(=O)N3CCN(c4ccccn4)CC3)c(C)o2)cc1 |  | active: 18.4 µM
6 | OC[C@@H]1CN(Cc2cccs2)C[C@H](n2cnc3c(NCc4ccncc4)ncnc32)O1 | inactive: 5.2% | 
4 | COc1ccccc1N1CCN(C(=O)C2CCN(S(=O)(=O)c3ccccc3)CC2)CC1 | inactive: 1.32% | 
15 | O=C(c1ccco1)N1CCN(/C(=N/S(=O)(=O)c2cccs2)c2ccccc2Cl)CC1 | inactive: 2.89% | 
9 | Cc1ccc(N2C(=O)C3N=NN(CC(=O)N4N=C(c5cccc6ccccc56)CC4c4ccccc4)C3C2=O)cc1 (centres undefined) |  | inconclusive: 29.1 µM [cytotoxic, single point]

Next part.

Row | Compound | activity change, negative = cytotoxicity | Potency
23 | CCc1cccc(C)c1NC(=O)COC(=O)c1cc([N+](=O)[O-])ccc1N1CCOCC1 | inactive: -18.1% | 
24 | CCOC(=O)c1cnn(-c2ccccc2)c1-n1cccc1C(=O)C(=O)Nc1ccccc1 |  | inconclusive: 9.2 µM [cytotoxic, partial curve]
25 | O=C(CN1CCCCC1)N1c2ccccc2Sc2ccc(C(F)(F)F)cc21 |  | inconclusive: 16.4 µM [cytotoxic, partial curve, poor fit]
26 | Oc1ccc2ccccc2c1N=Nc1nccs1 |  | inconclusive: 2.91 µM [cytotoxic, full curve, poor fit]
27 | CN(Cc1cnc2nc(N)nc(N)c2n1)c1ccc(C(=O)NC(CCC(=O)O)C(=O)O)cc1C(F)(F)F (centres undefined) |  | inconclusive: 0.146 µM [cytotoxic, full curve, poor fit]
28 | CC(C)(C)NC(=O)C(=O)NNC(=O)c1ccccc1Br |  | inconclusive: 23.1 µM [cytotoxic, single point]
29 | CCOC(=O)c1c(-c2ccccc2)csc1NC(=S)NC(=O)c1ccccc1 |  | inconclusive: 14.6 µM [cytotoxic, partial curve, poor fit]
30 | O=C(COC(=O)c1ccc(O)cc1)NCCc1c[nH]c2ccccc12 |  | inconclusive: 29.1 µM [cytotoxic, single point]
31 | CCc1ccc(S(=O)(=O)c2nnn3c2nc(NCc2cccs2)c2sccc23)cc1 | inactive: 6.72% | 
32 | CC(C)n1nc(C(=O)Nc2ccc(-n3cnnn3)cc2)c2ccccc2c1=O |  | inconclusive: 29.1 µM [cytotoxic, single point]
33 | O=S(=O)(c1ccccc1Br)N(Cc1ccccc1)CC(O)COCc1ccccc1 (centres undefined) | inactive: 0.0002% | 
34 | CN1CCN(C(c2ccc(F)cc2)c2sc3nc(-c4ccco4)nn3c2O)CC1 (centres undefined) |  | inconclusive: 23.1 µM [rising, single point]
35 | Cc1ccc(C(=O)NCCNc2ccc(Cl)cc2[N+](=O)[O-])o1 |  | inconclusive: 18.4 µM [cytotoxic, single point]
36 | N#CCCN(C(=O)COC(=O)CNC(=O)c1cccs1)c1ccc(F)cc1 |  | inconclusive: 29.1 µM [rising, single point]
37 | O=C(NC1CCCCCCC1)C1CCN(c2nc3ccccc3o2)CC1 |  | active: 2.31 µM
38 | COc1ccccc1C(=O)NC(=O)COC(=O)C1(C)CC1(Cl)Cl (centres undefined) |  | inconclusive: 29.1 µM [rising, single point]
39 | CCCSc1nc(N2CCCC2)c2c(c1C#N)CC(C)(C)OC2 |  | inconclusive: 20.6 µM [cytotoxic, single point]
40 | Cc1cc(C(=O)CSc2nnc(-c3ccco3)o2)c(C)n1C |  | inconclusive: 23.1 µM [cytotoxic, single point]
41 | CCC(C)(C)C1CCC2(CC1)NC(=S)N(c1ccccc1)N2 (centres undefined) | inactive: 1.06% | 
42 | CC1CC(C)(C)NC(=S)N1CCCC(=O)NCCc1ccc(Cl)cc1 (centres undefined) |  | inconclusive: 16.4 µM [cytotoxic, single point]
43 | CCOCCOC(=O)C1=C(C)NC2=C(C(=O)CC(c3cccs3)C2)C1c1ccsc1 (centres undefined) |  | active: 20.6 µM
44 | COC(=O)C(NC(=O)COc1ccccc1)(Nc1nc2c(s1)CCCC2)C(F)(F)F (centres undefined) |  | inconclusive: 23.1 µM [cytotoxic, single point]
